Source: patent US20190375815A1 (Novartis, published 2019)
No constants are given. Whether binding was seen depends on the method and setting. Some results given as binding are weak or reduced against the parent protein; the word gives no strength.

Chains of the proteins cited; added tags and fusions are not shown. Residues count along the entry.
UniProt P20273, residues 20-687: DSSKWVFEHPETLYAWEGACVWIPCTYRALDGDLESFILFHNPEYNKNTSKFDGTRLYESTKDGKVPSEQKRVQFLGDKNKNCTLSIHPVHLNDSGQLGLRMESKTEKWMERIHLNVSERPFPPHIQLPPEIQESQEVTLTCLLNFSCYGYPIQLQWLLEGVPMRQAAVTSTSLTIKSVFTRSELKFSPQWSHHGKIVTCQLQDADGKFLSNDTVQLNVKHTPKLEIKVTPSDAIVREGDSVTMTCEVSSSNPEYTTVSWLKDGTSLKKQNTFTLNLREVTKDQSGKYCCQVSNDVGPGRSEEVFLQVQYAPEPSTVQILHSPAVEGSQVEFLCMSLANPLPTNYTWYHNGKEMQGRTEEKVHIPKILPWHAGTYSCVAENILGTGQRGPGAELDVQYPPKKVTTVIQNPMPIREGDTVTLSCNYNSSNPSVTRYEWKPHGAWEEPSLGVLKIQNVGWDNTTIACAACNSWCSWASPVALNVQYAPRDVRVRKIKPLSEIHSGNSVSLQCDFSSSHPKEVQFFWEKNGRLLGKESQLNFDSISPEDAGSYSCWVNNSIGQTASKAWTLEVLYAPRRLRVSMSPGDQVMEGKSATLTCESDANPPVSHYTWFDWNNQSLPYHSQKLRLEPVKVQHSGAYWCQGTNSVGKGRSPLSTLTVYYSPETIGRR

Assays:
[1] = target: CD22-Fc (UniProt P20273); test: flow cytometry of JNL cells transduced with both TCARs
[2] = target: CD22-Fc (UniProt P20273); test: flow cytometry of CD22-TCAR transduced JNL cells, CD22-Fc and anti-Fc secondary antibody
[3] = target: CD22-Fc (UniProt P20273); test: flow cytometry of JNL cells transduced with both TCARs, CD22-Fc and anti-Fc secondary antibody

binding [1]: binds
binding [2]: binds
binding [3]: binds
B1: CD22-65scFv-G4S-CD3eECDTM-41BB (protein)
chain: EVQLQQSGPGLVKPSQTLSLTCAISGDSMLSNSDTWNWIRQSPSRGLEWLGRTYHRSTWYDDYASSVRGRVSINVDTSKNQYSLQLNAVTPEDTGVYYCARVRLQDGNSWSDAFDVWGQGTMVTVSSGGGGSGGGGSGGGGSQSALTQPASASGSPGQSVTISCTGTSSDVGGYNYVSWYQQHPGKAPKLMIYDVSNRPSGVSNRFSGSKSGNTASLTISGLQAEDEADYYCSSYTSSSTLYVFGTGTQLTVLGGGGSQDGNEEMGGITQTPYKVSISGTTVILTCPQYPGSEILWQHNDKNIGGDEDDKNIGSDEDHLSLKEFSELEQSGYYVCYPRGSKPEDANFYLYLRARVCENCMEMDVMSVATIVIVDICITGGLLLLVYYWSKRGRKKLLYIFKQPFMRPVQTTQEEDGCSCRFPEEEEGGCEL
